Patent US10004761B2, “Malodor neutralizing composition” (priority 2016, dated 2018)
For at least one compound, name, drawing or mass did not settle the structure.

What was measured:
[1] = system: hyaluronidase Type IV-S, from bovine testes (Hyase); experiment: Dische's assay (Method II) of HA degradation by Hyase with inhibitors; format: biochemical
Description: Method II (Dische's assay; detection of uronic acid residues): Assays were performed by following the procedures described in Dische Z. [J. Biol. Chem., 1947, 167, p. 189-198] and Dische and Rothschild [Anal Biochem., 1967, 21(1), p. 125-30]. In these assays, molecules containing the uronic acid residues found in the precipitate formed upon CPC additions, are re-solubilized and products formed by -sulfuric acid hydrolysis of these fragments are detected by a spectrophotometric assay employing carbazole chromagen reagent. In addition, small residues degraded off the HA chains that have not precipitated with the addition of CPC, can be detected by the carbazole assay performed on the solution, so as to detect all of the uronic acid content.
Evaluation of HA degradation by this method was generally performed as follows:
20 μL of a NAC stock solution, and 20 μL of the stock solutions of the other inhibitors were used in the assay.
200 μL of the HA stock solution were placed in each tube, for achieving a 1 mg HA per tube.
Twenty (20) μL of hyase and 20 μL of NAC were combined and incubated for 2 hours. Then 200 μL of HA (1 mg) were added to each tube and the mixture was incubated at room temperature for 24 hours. Thereafter, the tubes were heated for 2 minutes in boiling water bath and 8 mL of doubled distilled water were added to the tubes as preparation for the Dische's assay.
As per Dische's Assay, 100 μL of 3N NaCl and 0.5 mL of 10% CPC (cetylpyridinium chloride) were thereafter added to each tube and the mixture was incubated at 37° C. until flocculation-turbidity (resulting from precipitation of HA+CPC) could be observed. The mixture was centrifuged for 10 minutes at 10,000 g at room temperature, and the supernatant was thereafter separated from the obtained pellet.
The pellet was dissolved in 1 ml of CaCl2, and the obtained solution was incubated at 37° C. until complete dissolution of the pellet is obtained. […]
The pink-violet color developed by the chromogen was measured using a spectrophotometer at 527 nm. […]

[2] = HA gelation consistency (Method III) with inhibitors, no Hyase; format: physicochemical; details: Table 8: HA 1% 2cc + 20 μL inhibitor stock
Description: Method III (Viscosity of HA): HA at low concentrations (e.g., 1%) in aqueous solution forms a viscous colloidal hydrogel solution, which yields semi-solid gel particles at room temperature and a solid gel at 4° C.
HA degradation was evaluated using Method III, as described hereinabove.
HA Gelation in the presence of Hyase Inhibitors, without Hyase was studied while using the following Stock solutions:
To each tube containing 2 mL of 1% HA one of the following inhibitors: SCG, Tranilast, and Glutathione (100 μL of each), and NAC (50 μL) was added. […] No Hyase was present.
Using the same protocols as above, HA degradation was tested following incubation of HA (2 ml of a 1% Stock solution) and a Hyase inhibitor (20 μL of a stock solution as described hereinabove), at 37° C., in the presence and absence of Hyase.

For `COc1ccc(/C=C/C(=O)Nc2ccccc2C(=O)O)cc1OC` [Tranilast, tranilast], the “% HA degraded” value ([1]; 20 μL inhibitor stock incubated 2 h with 20 μL Hyase, then HA 200 μL, room temperature 24 h) was 90.2%, the “% of inhibition of HA degradation” value ([1]; derived from Table 1) was 9.8% and the “% HA intact (precipitated)” value ([1]; represents % of Hyase inhibition, 20 μL inhibitor, 20 μL Hyase, HA 200 μL, room temperature 24 h) was 9.8%. The Consistency ([2]; at 4° C.) was “Solid (for a solid the results were in the range of 80-100 Pa S and higher)” and the Consistency ([2]; at 37° C.) was “Semisolid (for a semi-solid in the range of 50-70 Pa S)”.
